Experimental data published in PubChem BioAssay AID540276 (National Center for Advancing Translational Sciences (NCATS), 2011).
“And” between values parts separate entries of the source, which are not always exact repeats. Equal entries are not always repeated. Out of some 300,000 compounds screened, about 5,400 (1.8%) were called active. The inconclusive results got no clear call from the source; some entries with a clear call stand among them for comparison. Calls follow the shape of the full dose curve; tested in HEK293 cells. Potencies of inconclusive entries are doubtful fits and often do not repeat.

Assay: qHTS for inhibitors of binding or entry into cells for Marburg Virus
Settings: Marburg virus pseudotyped entry inhibition, cell reporter; series mostly up to 37.8 µM
Potency is read from the fitted curve at half-maximal effect.

Structure (SMILES)	Potency
COCCn1c(Br)nc2c1c(=O)n(C)c(=O)n2C	inactive
N#Cc1cccc(NC(=O)COC(=O)c2ccccc2C(=O)c2ccc(Cl)c([N+](=O)[O-])c2)c1	active: 23.1 µM
Cc1c(Cl)cccc1NC(=O)Nc1ccc(C(N)=O)cc1	inactive
O=C(CN1CCC(C(=O)c2ccc(F)cc2)CC1)Nc1ccc(F)cc1	inconclusive: 11.2 µM [inhibitor, single point]
CSc1ccc(CNCCCSc2ncccn2)cc1	inconclusive: 6.31 µM [activator, partial curve]
COc1ccc(C2CC(c3c(O)n(C4CCCCC4)c(=O)[nH]c3=O)=Nc3ccccc3S2)cc1 (stereo not drawn)	inactive
CCN1CCN(C(=O)c2ccc3c(Cl)c4c(nc3c2)CCCC4)CC1	inconclusive: 35.5 µM [inhibitor, single point]
CCOc1cc(N2CCOCC2)c(OCC)cc1NC(=O)COc1cccc2cccnc12	active: 4.47 µM
O=C(CNC(=O)c1ccc2c(c1)OCO2)Nc1ncccc1O	inconclusive: 35.5 µM [activator, single point]
CC(=O)c1ccc(Oc2cc(C)nc(-n3nc(C)cc3C)n2)cc1	inconclusive: 35.5 µM [inhibitor, single point]
O=C(Cc1cccs1)N1CCN(S(=O)(=O)c2ccc(F)cc2)CC1	inactive
O=C(OCC(=O)N1CCCCCC1)c1cccs1	inactive
CCOC(=O)C1(C/C(C)=N/NC(N)=O)CC(C)(C)OC1=O (stereo not drawn)	inconclusive: 3.16 µM [activator, partial curve]
COc1ccc(F)cc1S(=O)(=O)Nc1cc2c3c(c1)CCN3C(=O)CC2	inconclusive: 31.6 µM [activator, single point]
COc1ccc(CCNC(=O)c2ccc3ccccc3n2)cc1	inconclusive: 35.5 µM [inhibitor, single point]
CC(Nc1cc(N2CCNCC2)ccc1[N+](=O)[O-])c1ccccc1 (stereo not drawn)	inconclusive: 13 µM [inhibitor, partial curve, poor fit]
CC(C)CCOc1ncnc2c1sc1nc3c(cc12)CSC(C)(C)C3	inactive
COc1ccc(N(CC(=O)NCCc2ccc(OC)c(OC)c2)S(=O)(=O)c2ccc(OC)c(OC)c2)cc1	inconclusive: 29.1 µM [inhibitor, single point]
COc1ccccc1NC(=S)NCCc1ccccc1	inconclusive: 0.501 µM [activator, full curve, poor fit]
COc1ccccc1N1CCN(S(=O)(=O)c2c(C)sc3ncn(CC(=O)Nc4cccc(Cl)c4)c(=O)c23)CC1	inconclusive: 4.47 µM [activator, single point]
Cc1ccc(Nc2nc(-c3c(C)nc4ncccn34)cs2)cc1	inconclusive: 14.1 µM [inhibitor, partial curve, poor fit]
CCC(=O)N(CCC1(c2ccccc2OC)CCOC(C(C)C)C1)Cc1ccco1 (stereo not drawn)	inconclusive: 15.8 µM [inhibitor, partial curve, poor fit]

Structure (SMILES)	Potency
COc1ccc(Nc2nc3ccccc3c(=O)s2)c(OC)c1	inactive
CCc1cc2cccc(C)c2nc1SCC(=O)Nc1nonc1C	inconclusive: 7.08 µM [inhibitor, partial curve, poor fit]
O=C(OCC(=O)N1CCCc2ccccc21)c1cc(Br)ccc1O	inconclusive: 11.2 µM [activator, partial curve, poor fit]
COc1cccc(Oc2ccc(C(F)(F)F)cc2NC(=O)c2cccc(F)c2)c1	inconclusive: 0.112 µM [inhibitor, full curve, poor fit]
CC1(C)CC(CC(=O)Nc2ccccc2[N+](=O)[O-])C(=O)O1 (stereo not drawn)	inconclusive: 35.5 µM [inhibitor, single point]
CCCc1ccc2oc(C(=O)N3CCN(CCC(N)=O)CC3)c(C)c2c1	inconclusive: 1.78 µM [activator, partial curve, poor fit]
COCCc1nc2ccc(C(=O)N(C)Cc3cccc(-n4cccn4)c3)cc2o1	inactive
CCOc1ccc(NC(=O)CN(C)C(=O)C2(c3ccccc3)CC2)cc1OCC	inconclusive: 15.8 µM [inhibitor, single point]
CC(C)NCC(O)COc1cccc2[nH]ccc12 (stereo not drawn)	inconclusive: 4.11 µM [activator, single point] and inconclusive: 3.16 µM [activator, partial curve]
O=C(c1ccc2c(c1)OCO2)C1CCCN(Cc2cn[nH]c2-c2cccc(F)c2)C1 (stereo not drawn)	inconclusive: 35.5 µM [inhibitor, single point]
COC(=O)N/N=C\c1cccc(OC(=O)c2cccs2)c1	inactive
CCOC(=O)c1c[nH]c2c(Cl)c(Cl)ccc2c1=O	inactive
O=C(CN1CCCCC1)Nc1ccc(Br)cc1[N+](=O)[O-]	inconclusive: 22.4 µM [inhibitor, partial curve, poor fit]
Cc1ccc(S(=O)(=O)NCCSc2nnnn2-c2cc(C)ccc2C)cc1	inconclusive: 35.5 µM [inhibitor, single point]
Nn1cnnc1N/N=C/c1ccc(Cl)c([N+](=O)[O-])c1	inconclusive: 17.8 µM [inhibitor, partial curve, poor fit]
CCC(=O)OC1(Cc2ccc(CC)cc2)CC(C)N(C)CC1C (stereo not drawn)	inconclusive: 35.5 µM [inhibitor, single point]
O=C(C1=C(O)C(=O)N(CCN2CCOCC2)[C@H]1c1cccnc1)c1cc2ccccc2o1	inactive
COc1cc(/C=C2\SC(c3ccc(C)cc3)=NC2=O)cc(OC)c1OC	inconclusive: 29.1 µM [inhibitor, single point]
COC(=O)C1=C(C)N(Cc2ccc(C)cc2)C(=O)/C1=C\c1ccc(O)c(OC)c1	inconclusive: 35.5 µM [activator, partial curve, poor fit]
COc1ccc(NC(=O)Cc2csc(NC(=O)Nc3ccccc3OC)n2)c(OC)c1	inconclusive: 35.5 µM [inhibitor, single point]
COc1cccc(Oc2nc(-c3ccncc3)nc3ccccc23)c1	inconclusive: 17.8 µM [inhibitor, partial curve, poor fit]

Exported with bars between the fields: 2 of the compounds above
Structure (SMILES) | Potency
O=C(C1=C(O)C(=O)N(CCN2CCOCC2)[C@H]1c1cccnc1)c1cc2ccccc2o1 | inactive
COc1cc(/C=C2\SC(c3ccc(C)cc3)=NC2=O)cc(OC)c1OC | inconclusive: 29.1 µM [inhibitor, single point]
